From ChEMBL document CHEMBL3988442, “University of Dundee, Small-Polar-MMV Screening Library” (2021).

Each number is a percent effect as filed.
The controls that fix the scale are not given in the record; negative values are as filed.
This is an unselected part of the compounds tested.

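Whole-cell assay for inhibitors of Mycobacterium tuberculosis growth, labelled Cornell in the record; the read-out is not stated. The concentration is filed as 10 mM, unlikely as a test dose, so the dose is not known. The record gives no direction; compounds strong in two other growth screens of this library score well above the rest, so higher reads as stronger inhibition. About 53,000 compounds were tested under these conditions; 1.7% (about 900) showed 50% or more at least once.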

structure,Percent Effect
CCc1cnc(CN(C)C(=O)NC2CCN(c3ccccc3)C2)s1 (centres undefined),26.56%
c1ccc2c(c1)CC(n1ccnc1-c1cc3n(n1)CCCNC3)CO2 (centres undefined),7.978%
Cn1cc(-c2nc(C(=O)N3CCCC3c3cnn(C)c3)cs2)cn1 (centres undefined),20.68%
Cc1cc(C)nc(CN(C)C(=O)c2ccccc2C2CCNC2)c1 (centres undefined),-1.564%
CS(=O)(=O)N1CCCC1Cn1cccn1 (centres undefined),4.73%
O=C(Cc1ccccn1)N1CCC2(CC1)[C@H](O)C[C@@H]2O,-15.52%
COC1(CNC(=O)c2ccc3nsnc3c2)CCSC1 (centres undefined),2.832%
Cn1ccnc1COc1ccc(CSc2nncn2C2CC2)cc1,5.784%
CO[C@H]1CN(C(C)C)C[C@@H]1NC(=O)Nc1cccc(SC)c1,-39.32%
COc1ccc(N2CCOCC3(CCCN(c4cnccn4)C3)C2)cc1 (centres undefined),2.125%
CC1c2ncc(COc3cccnc3)n2CCN1Cc1cnn(C)c1.O=C(O)C(F)(F)F.O=C(O)C(F)(F)F (centres undefined),-2.376%
COc1c(CNC2(c3noc(C)n3)CCC2)c(C(C)C)nn1C.Cl,-34.94%
Cc1ccc(CN(C)C(=O)CN2CCCC2c2cnn(C)c2)cc1 (centres undefined),10.65%
Cc1ncc2c(c1CNC(=O)C1(C)CC1)CCNC2,-5.643%
CCOCc1ccccc1NC(=O)NC1CCN(CC(F)(F)F)C1 (centres undefined),18.31%
Cn1cc(CN2CC[C@H](O)[C@@H]2Cc2ccncc2)cn1,-16.11%
CCC(=O)N1CCC2(CC1)CC(Oc1ccccc1)CO2 (centres undefined),-4.008%
CC(C)OC(=O)CC(NC(=O)CCn1cccn1)c1ccccc1 (centres undefined),5.341%
CC(C)CC(CO)NC(=O)NCc1csc(N(C)C)n1 (centres undefined),45.39%
O=C1CNc2ncnc(Nc3cccc(Cn4cccn4)c3)c2N1,12.5%
Cc1cc(C)n(C2CN(CCc3ccncc3)C2)n1,-10.48%
CN1CCN(Cc2cnc3n2CCN(Cc2cccs2)C3)CC1.O=C(O)C(F)(F)F.O=C(O)C(F)(F)F.O=C(O)C(F)(F)F,-18.02%
CCN(CC(=O)NC(C)(C)C)Cc1cccc2c1OCCO2,9.307%
O=C(c1cc(=O)[nH]c(=O)[nH]1)N1CCCCC1c1ccc(F)cc1 (centres undefined),3.058%
O=C(O)C(F)(F)F.O=C(O)C(F)(F)F.[H][C@@]12COC[C@]1([H])[C@@H](OCCN(C)C)CN2Cc1ccc(C)o1,19.04%
c1cnnc(N2CCCC2CNCc2nc(C3CC3)no2)c1 (centres undefined),-28.58%
CCn1nc(C)cc1C(=O)NCc1cc(N(C)C)nc2ccccc12,34.42%
O=C(CSc1ccccc1)Nc1cnn(CC(=O)N2CCCO2)c1,12.73%
COc1ccc(NC(C)C(=O)N2CCN(c3ccccc3)CC2)cn1 (centres undefined),7.26%
COc1c(CNC2CCOc3c(F)cccc32)c(C)nn1C (centres undefined),-14.33%
Cc1nc(C2CCCN2Cc2nc(C)c(C)o2)no1 (centres undefined),19.38%
O[C@H]1CN(Cc2cc3ccccc3o2)CC[C@@]12CCCO2,-3.917%
CCN(CC(=O)NC(C)C)S(=O)(=O)N1CCCCCC1,-11.92%
CN(C)Cc1cnc(C2CCN(C(=O)c3cc(F)cc(F)c3)C2)[nH]1 (centres undefined),10.03%
O=C(O)C(F)(F)F.[H][C@@]12CN(C(=O)c3ccccc3C)C[C@]1([H])OCCN2c1ncccn1,-18.68%
CC(C)CNC(=O)c1nc(COc2ccc3c(c2)OCO3)no1,2.416%
COc1cc(NC(=O)c2nc3ccccc3n(C)c2=O)cc(OC)c1,17.58%
CCCn1nc2c(cc1=O)CN(CC(=O)Nc1cc(C)no1)CC2,-2.608%
O=c1ccc2c([nH]1)CCC(NS(=O)(=O)C1CC1)C2 (centres undefined),-11.69%
CN1CC(=O)N(c2ccccc2)CC12CCN(C(=O)c1cnccn1)C2.O=C(O)C(F)(F)F (centres undefined),-5.648%
Cc1cnn(CCCN2C(=O)CCc3ccccc32)c1,-31.27%
CC(=O)NC(C)CC(=O)NCc1cccnc1Oc1ccccc1C (centres undefined),-52.92%
[H][C@]12CC[C@]([H])(CN(S(=O)(=O)N(C)C)C1)N(Cc1csc(C(C)=O)c1)C2,9.312%
Cc1cccc(CS(=O)(=O)CC(O)Cn2cccn2)c1 (centres undefined),-2.755%
CC(O)CN1CCC(CNCc2ccccc2OC(F)(F)F)CC1 (centres undefined),9.598%
CSc1ncccc1C(=O)Nc1ccc(Cn2ccccc2=O)cc1,-13.11%
CC(=O)N1CCCC1c1cccc(Cc2ccccc2F)n1 (centres undefined),-14.01%
CN1CC(=O)N(c2cccc(F)c2)CC12CCN(Cc1ccccn1)C2 (centres undefined),-20.89%
O=C(c1ccccn1)N1CC[C@@H](N2CCOCC2)[C@@H]1Cc1ccccc1,7.02%
Cc1cc(C(=O)N(C)CCCn2cccn2)nc(N)n1,18.78%
CS(=O)(=O)N1CCOC2(CCN(c3ncccn3)CC2)c2ccccc21,24.6%
Cc1cnn(C2CN(CC(=O)NCCc3cccs3)C2)c1,7.687%
CCC(CNC1CCN(C(C)=O)CC1)Oc1cccc(C)c1 (centres undefined),-0.6188%
CCC1(CC)Cc2ccccc2-c2nc(CN(C)C)nc(O)c21,6.965%
CC(C)=CCS(=O)(=O)Cc1noc(CC(C)C)n1,34.72%
COc1ccc(NC(=O)Cc2c(C)nn(C)c2C)cc1F,-27.13%
CC(=O)c1ccc(-n2c(C)cn(CCC#N)c2=O)cc1,-18.47%
CN1CCNC(Cc2ccc(-c3cccs3)cc2)C1=O (centres undefined),-87.96%
CNC(=O)c1cccc(CNC(C)c2cc(C)ccc2OC(F)F)c1 (centres undefined),-6.834%
CCS(=O)(=O)N1CCC2(CC1)CC1(CCN(CCOC)CC1)C(=O)N2C.O=C(O)C(F)(F)F,12.75%
COc1ccc(CN2CCC(C(N)=O)C2)c(Br)c1OC (centres undefined),27.71%
CN1CCN(C2CCN(C(C(N)=O)c3ccccc3)CC2)C1=O (centres undefined),-2.986%
O=C(Cc1ccc2c(c1)OCCO2)NC1CCCC1,-9.554%
CN1CCOC(CNCc2coc(-c3cccc(Cl)c3)n2)C1 (centres undefined),12.33%
Cc1cc(Cc2ccccc2C)cc(C2CCCNC2)n1 (centres undefined),8.819%
Cc1c[nH]c(C2COCCN2S(=O)(=O)c2cn[nH]c2)n1 (centres undefined),9.573%
COc1cccc(CNc2c(C)cnc3c2c(=O)n(C)c(=O)n3C)c1,-46.86%
CCc1nc(CN2CCCC(N(C)CCc3cccs3)C2)no1 (centres undefined),-23.79%
O=C(c1ncc[nH]1)N1CCC(n2cc(-c3cccc(Cl)c3)nn2)CC1,-4.446%
CN(C)CCNC(=O)c1nc2c(s1)CCCN2C(=O)C1CC1.O=C(O)C(F)(F)F,-11.38%
O=C(c1nc(=O)[nH][nH]1)N1CCCN(CC2CCCCC2)CC1,19.99%
Cc1cc(C(F)(F)F)nc(C2CCCN2S(C)(=O)=O)n1 (centres undefined),-28.88%
Cc1cc(C)c2nc(C)c(C(=O)N3CCC(CCN(C)C)CC3)cc2c1,2.287%
CN1CCN(Cc2nnc(C3CCN(CC4CC4)CC3)n2C)CC1,7.36%
N#Cc1ncn(CCS(=O)(=O)c2ccc(Br)cc2)n1,-37.29%
Cc1ncc(-c2nc3cc(S(=O)(=O)N4CCCC4)ccc3n2C)cn1,-43.71%
COCCC(Cc1cccc(Br)c1)C(=O)N(C)C (centres undefined),18.29%
NC(=O)c1cccc(CC2CCN(C(=O)CCCN3CCOCC3)C2)c1 (centres undefined),-21.27%
CC(C)CCN(C(=O)c1cc2c([nH]c1=O)CCCC2=O)C1CC1,-1.7%
CC(C)[C@@H]1CN(C(=O)C2(c3ccccc3)CC2)C[C@H]1C(=O)O,-0.1033%
O=C(O)C(F)(F)F.[H][C@@]12CCN(CC3CC3)C[C@@]1([H])O[C@H](c1nc(C)no1)C2,6.274%
Cc1cc(C)cc(N2CC(c3nnc(N)s3)CC2=O)c1 (centres undefined),27.21%
CC(C)c1nccn1C1CCCN(C(=O)c2ccc3c(c2)COC3)C1 (centres undefined),-1.281%
Cc1nc(C)n(CC2CN(Cc3cccc(C(N)=O)c3)CCO2)n1 (centres undefined),19.65%
O=C(O)C(F)(F)F.[H][C@@]12CNC[C@]1(C(=O)O)CN(C(=O)c1ccccc1-c1ccccc1)C2,9.147%
[H][C@]12C[C@@H](Cn3cncn3)N(C(C)=O)[C@@]1([H])CCN(c1ncccn1)C2,10.69%
Cc1csc(NC(=O)Cn2nc(C)ccc2=O)n1,27.47%
COCCN(Cc1cccnc1)c1nc(C)nc2oc(C)nc12,14.69%
Cc1ccc(CN2CCOC3(COCCN(S(C)(=O)=O)C3)C2)s1.O=C(O)C(F)(F)F (centres undefined),5.982%
[H][C@]12CC[C@]([H])(CN(C)C1)N(C(=O)c1cc(OC)ccc1OC)C2,-28.59%
CC(=O)Nc1ccc(SCC(=O)NCC2CCCO2)nn1 (centres undefined),-52.19%
Cn1ccnc1C(=O)N1CCCC(Cn2cc(CO)nn2)C1 (centres undefined),2.441%
COc1ccc(N2CCCC3(C2)CN(c2ncccn2)CCO3)cc1 (centres undefined),22.24%

For reference, 11 entries once more:

CCC1(CC)Cc2ccccc2-c2nc(CN(C)C)nc(O)c21 gave 6.965%.
CN1CC(=O)N(c2ccccc2)CC12CCN(C(=O)c1cnccn1)C2.O=C(O)C(F)(F)F (centres undefined) gave -5.648%.
CC1c2ncc(COc3cccnc3)n2CCN1Cc1cnn(C)c1.O=C(O)C(F)(F)F.O=C(O)C(F)(F)F (centres undefined) gave -2.376%.
O=C1CNc2ncnc(Nc3cccc(Cn4cccn4)c3)c2N1 gave 12.5%.
CC(O)CN1CCC(CNCc2ccccc2OC(F)(F)F)CC1 (centres undefined) gave 9.598%.
O=C(c1ccccn1)N1CC[C@@H](N2CCOCC2)[C@@H]1Cc1ccccc1 gave 7.02%.
COc1cccc(CNc2c(C)cnc3c2c(=O)n(C)c(=O)n3C)c1 gave -46.86%.
[H][C@]12C[C@@H](Cn3cncn3)N(C(C)=O)[C@@]1([H])CCN(c1ncccn1)C2 gave 10.69%.
CC(C)CCN(C(=O)c1cc2c([nH]c1=O)CCCC2=O)C1CC1 gave -1.7%.
CN1CC(=O)N(c2cccc(F)c2)CC12CCN(Cc1ccccn1)C2 (centres undefined) gave -20.89%.
Cc1ncc2c(c1CNC(=O)C1(C)CC1)CCNC2 gave -5.643%.